The record followed here is PMC8329073.

For at least one entry, the source does not settle the construct or the ends of the probe. For part of these data: A negative result means that nothing was seen under these conditions. For part of these data: At least one verdict was read from the data and is not stated in words by the source.

Data set [1] deals with Thrombin. Put plainly: strand-displacement fluorescence (Rep-2). The note with it: 5 mM Mg2+, 20 mM Tris-HCl pH 7.5 (22 °C), 100 mM NaCl, 0.1 mM EDTA, 5 mM MgCl2 (20 mM MgCl2 for DNAzyme), room temperature, indirect read-out by strand-displacement fluorescence, commercial protein, folded or branched DNA.
Data set [2] concerns Thrombin. Put plainly: strand displacement with toehold-exchange amplification. The note with it: 5 mM Mg2+; 20 mM Tris-HCl pH 7.5 (22 °C), 100 mM NaCl, 0.1 mM EDTA, 5 mM MgCl2 (20 mM MgCl2 for DNAzyme), room temperature; indirect read-out by strand-displacement fluorescence; commercial protein; folded or branched DNA.
Data set [3] deals with Thrombin. Put plainly: strand-displacement fluorescence (Rep-4). The note with it: feedback circuit; 20 mM Tris-HCl pH 7.5 (22 °C), 100 mM NaCl, 0.1 mM EDTA, 5 mM MgCl2 (20 mM MgCl2 for DNAzyme), room temperature; indirect read-out by strand-displacement fluorescence; commercial protein; folded or branched DNA.
For data set [4], the system named is Thrombin. Kind of data set: strand-displacement fluorescence (Rep-1). The note with it: 200 nM thrombin, no ATP, 5 mM Mg2+; 20 mM Tris-HCl pH 7.5 (22 °C), 100 mM NaCl, 0.1 mM EDTA, 5 mM MgCl2 (20 mM MgCl2 for DNAzyme), room temperature; indirect read-out by strand-displacement fluorescence; commercial protein; folded or branched DNA.
Data set [5] has as its system Thrombin. Kind of data set: strand displacement with DNAzyme amplification. The note with it: 20 mM Mg2+; 20 mM Tris-HCl pH 7.5 (22 °C), 100 mM NaCl, 0.1 mM EDTA, 5 mM MgCl2 (20 mM MgCl2 for DNAzyme), room temperature; indirect read-out by strand-displacement fluorescence; commercial protein; folded or branched DNA.

As to “ATGTCAACGTAGTCCGTGGTAGGGCAGGTTGGGGTGACTTGGATAGGTAGGGTACGCT [Apt-Thr-4bp]”, in the data set on Thrombin [1], the binding result is listed as “binds”.
As to “CAATCTCTTTGTCCGTGGTAGGGCAGGTTGGGGTGACTTGCCATAGCCAGTAGTCTC [Apt-Thr-TE]”, the binding result in the data set on Thrombin [2] is “binds”.
“CTTGAAGCAGCTAACCGATACAGTTGCAGGTCCAGGTTGTCCGTGGTAGGGCAGGTTGGGGTGACTTCGATAGAGA [Apt-Thr-stimulation (= Apt-Thr-inhibition)]”: the binding result in the data set on Thrombin [3] was “binds”.
Consider “GCAATCTCTTTCTTGGGGGAGTATTGCGGAGGAAAGTTGCCATGACCAGTAGTCTC [Apt-ATP-3bp-CTT]”, for which the binding result in the data set with Thrombin [4] is listed as “no binding”.
Take “GTGATGTCAACGTTGTCCGTGGTAGGGCAGGTTGGGGTGACCAAGATCGTGCG / CGCACGATCTTGCTTGGGGGAGTATTGCGGAGGAAAGTTGGATAGGTAGGGTACGCT [Apt-Thr-AND / Apt-ATP-AND combinatory aptamer]”: in the data set with Thrombin [1] (200 nM thrombin with 1 mM ATP), the binding result is “binds”.
With “TAAGTTGCTTGTCCGTGGTAGGGCAGGTTGGGGTGACTTATGAGATATCTCCGAGCC [Apt-Thr-DNAzyme]”, the binding result in the data set with Thrombin [5] is “binds”.
